No constants are given. Whether binding was seen depends on the method and setting. In cells and extracts the contact can be indirect. Some results given as binding are weak or reduced against the parent protein; the word gives no strength.

Protein sequences, listed by entry. Tags and fused reporters are not part of them. Lines headed by an entry give the natural chain unless they say otherwise; changes in a name come on top.
UniProt Q15672: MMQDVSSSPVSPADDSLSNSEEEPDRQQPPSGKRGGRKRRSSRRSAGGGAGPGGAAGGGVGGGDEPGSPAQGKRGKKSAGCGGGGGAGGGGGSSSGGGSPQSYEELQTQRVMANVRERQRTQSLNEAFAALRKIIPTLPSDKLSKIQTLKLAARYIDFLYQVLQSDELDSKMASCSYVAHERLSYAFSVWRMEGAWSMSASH
UniProt P15923: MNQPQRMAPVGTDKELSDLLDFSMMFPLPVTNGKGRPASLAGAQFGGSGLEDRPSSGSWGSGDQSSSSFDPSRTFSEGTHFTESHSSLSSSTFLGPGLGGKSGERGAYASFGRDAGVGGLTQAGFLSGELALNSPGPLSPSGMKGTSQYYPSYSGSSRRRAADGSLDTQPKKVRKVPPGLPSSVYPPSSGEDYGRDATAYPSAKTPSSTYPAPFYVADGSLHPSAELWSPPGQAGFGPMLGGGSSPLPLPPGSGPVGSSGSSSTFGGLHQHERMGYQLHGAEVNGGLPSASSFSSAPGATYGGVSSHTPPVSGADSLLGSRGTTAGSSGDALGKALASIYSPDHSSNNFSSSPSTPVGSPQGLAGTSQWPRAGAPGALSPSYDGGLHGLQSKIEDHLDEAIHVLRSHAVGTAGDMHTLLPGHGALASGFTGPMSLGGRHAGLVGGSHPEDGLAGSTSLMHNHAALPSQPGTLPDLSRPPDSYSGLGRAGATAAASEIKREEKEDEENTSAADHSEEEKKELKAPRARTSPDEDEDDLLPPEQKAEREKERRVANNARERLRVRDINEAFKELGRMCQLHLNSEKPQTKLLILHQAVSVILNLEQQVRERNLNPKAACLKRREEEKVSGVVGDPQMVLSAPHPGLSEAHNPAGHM

Here are results for three substances from PMC6770789.

The target of test [1] is TW-NTAP (TWIST1 fused to the NTAP tag) (UniProt Q15672). The test is described as follows: co-IP; affinity purification (AP) of NTAP-tagged TW from nuclear extracts of T98G cells on agarose beads conjugated with rabbit immunoglobulin, overnight; co-purified endogenous proteins detected by Western blot. For orientation: Immunoblotting shows a protein as a band on a membrane.

Test [2] concerns the target TWIST1 (TW), endogenous (human (endogenous in T98G)) (UniProt Q15672). The test is described as follows: co-IP; endogenous proteins of T98G cells; reciprocal IP with mouse E12 and TW antibodies, blot with rabbit antibodies; also IP with pTW S68 antibody, blot with mouse E12 antibody; same-isotype non-specific IgG as control; 150 mM NaCl.
Test [3] addresses TWIST1 phosphorylated at serine 68, endogenous (human (endogenous in T98G)) (UniProt Q15672). The test is described as above.
Test [4] concerns the target TW(S68A)-NTAP (TWIST1 S68A fused to the NTAP tag) (UniProt Q15672). The test is described as follows: co-IP; affinity purification of TW(S68A)-NTAP on rabbit immunoglobulin agarose from cytoplasmic and nuclear fractions of cells co-transduced with TW(S68A)-NTAP and TW(S68A)-HA; blot with HA antibody.
Test [5] addresses TWIST1 wild type, overexpressed from pLXSN (UniProt Q15672). The test is described as follows: co-IP; nuclear extracts (diluted to 150 mM NaCl) of T98G cells stably transduced with E12 (pLXSH) and TW or TW(S68A) (pLXSN); IP with TW antibody, blot for E12; non-specific IgG control.

Take “E12 bHLH transcription factor, endogenous (from UniProt P15923 1-654)”: the binding entry in test [1], in test [2] and in test [3] was “binds” throughout.

Take “TW(S68A)-HA (HA tagged TWIST1 S68A) (from UniProt Q15672 1-202)”: the binding result in test [4] is given as “binds”.

Consider “E12 monomer, overexpressed from pLXSH (from UniProt P15923 1-654)”, for which the binding result in test [5] is “binds”.
